Structures can show the parent of a compound that is named as a salt. Not every detail of the peptide structures is certain; ends, links or a residue may be inferred. Square brackets hold non-standard residues; d marks the D form. Peptide text beside a SMILES is read from it. * marks the point of attachment. Benzoyl(4-guanidino) = N=C(N)Nc1ccc(C(=O)*)cc1; Oic = O=C(O)[C@@H]1C[C@@H]2CCCC[C@@H]2N1; Hyp = O=C(O)[C@@H]1C[C@@H](O)CN1; dTic = O=C(O)[C@H]1Cc2ccccc2CN1; 2Thi = N[C@@H](Cc1cccs1)C(=O)O
Test system: edema of the rat's foot induced by carrageenan
Experiment: Carrageenan-induced edema of the rat's foot (anti-inflammatory activity)
Type: in vivo
Settings: 0.1 mg/kg I.V., time 3 hours, relative to vehicle control group

**Q.** `N=C(N)NCCC[C@H](NC(=O)[C@@H]1C[C@@H]2CCCC[C@@H]2N1C(=O)[C@H]1Cc2ccccc2CN1C(=O)[C@H](CO)NC(=O)[C@H](Cc1cccs1)NC(=O)CNC(=O)[C@@H]1C[C@@H](O)CN1C(=O)[C@@H]1CCCN1C(=O)[C@H](CCCNC(=N)N)NC(=O)c1ccc(NC(=N)N)cc1)C(=O)O` [Example 1, G-Arg-Pro-Hyp-Gly-Thia-Ser-(D)Tic-Oic-Arg-OH trifluoroacetate] ({Benzoyl(4-guanidino)}-RP[Hyp]G[2Thi]S[dTic][Oic]R-OH) was tested. Which “inhibition of the edema” value did it give?
**A.** Its value is 59%.

Source: patent US5409899A, “Pseudopeptide compounds having anti-inflammatory activity” (Adir et Compagnie, priority 1992, dated 1995)
